From article PMC9564337 (Cancers, 2022)
Strings that start with PEPTIDE1 are HELM notation: dots part the residues, brackets hold end groups and non-standard residues.

Assays:
[1] = general procedure: Fmoc solid-phase peptide synthesis; H-Leu-2-ClTrt resin (loading 0.79 mmol/g); 2-ClTrt-Cl resin for 46 and 47; HBTU/HOBt/DIPEA; oxyma/DIC for 11; conditions: hydrotrifluoroacetate (TFA salt); for final HPLC purity: 220 nm
[2] = general procedure: Fmoc solid-phase peptide synthesis; H-Leu-2-ClTrt resin; HBTU/HOBt/DIPEA; oxyma/DIC for 11; conditions: whole synthesis, hydrotrifluoroacetate (TFA salt)

## PEPTIDE1{R.[MeArg(cbC4DOTA)].P.Y.[Tle].L}$$$$V2.0 [17]
[1]; conjugation step
  final HPLC purity: > 99%
  conjugation yield: 28%

## Nα-(Nα-Methylarginyl)-Nω-{[4-(N-{2-[gallium(III)-4,7,10-tris(carboxymethyl)-1,4,7,10-tetraazacyclododecan-1-yl]acetyl})aminobutyl]aminocarbonyl}Arg-Pro-Tyr-α-tert-butyl-Gly-Leu tris(hydrotrifluoroacetate) [19]
[1]; late stage modification step
  final HPLC purity: > 99%
  step yield: 95%

## PEPTIDE1{[MeArg].[Arg(cbC4DOTA)].P.Y.I.L}$$$$V2.0 [15]
[1]; conjugation step
  final HPLC purity: > 99%
  conjugation yield: 62%

## PEPTIDE1{[NMeArg].R.P.Y.[Deg].L}$$$$V2.0
[2]; scale 0.0316 mmol
  isolated mass: 9.1 mg
  isolated yield: 25%
[1]; whole synthesis
  final HPLC purity: 99%

## PEPTIDE1{[NMeArg].R.P.Y.[aMeLeu].L}$$$$V2.0
[2]; scale 0.0316 mmol
  isolated mass: 26.3 mg
  isolated yield: 70%
[1]; whole synthesis
  final HPLC purity: 99%

## Nα-Methyl-Nω-{[8-N-(Nα-{2-[4,7,10-tris(carboxymethyl)-1,4,7,10-tetraazacyclododecan-1-yl]acetyl}-4-{4-fluorophenyl}-phenylalanyl)amino-3,6-dioxaoctyl]aminocarbonyl}Arg-Arg-Pro-Tyr-α-tert-butyl-Gly-Leu tetrakis(hydrotrifluoroacetate)
[1]; conjugation step
  final HPLC purity: 97%
  conjugation yield: 81%

## Nα-(Nα-Methylarginyl)-Nω-{[4-(N-{2-[gallium(III)-4,7,10-tris(carboxymethyl)-1,4,7,10-tetraazacyclododecan-1-yl]acetyl})aminobutyl]aminocarbonyl}Arg-Pro-Tyr-Ile-Leu tris(hydrotrifluoroacetate) [20]
[1]; late stage modification step
  final HPLC purity: > 99%
  step yield: > 99%

## Nα-Methyl-Nω-({4-N-[4-(4-fluorophenyl)phenylalanyl]aminobutyl}aminocarbonyl)Arg-Arg-Pro-Tyr-α-tert-butyl-Gly-Leu tetrakis(hydrotrifluoroacetate)
[1]; conjugation step
  final HPLC purity: > 99%
  conjugation yield: 46%

## PEPTIDE1{[NMeArg].R.P.Y.[S-Iva].L}$$$$V2.0
[2]; scale 0.0316 mmol
  isolated mass: 26.3 mg
  isolated yield: 72%
[1]; whole synthesis
  final HPLC purity: 98%

## PEPTIDE1{[NMeArg].R.P.Y.[aIle].L}$$$$V2.0
[2]; scale 0.0316 mmol
  isolated mass: 13.8 mg
  isolated yield: 37%
[1]; whole synthesis
  final HPLC purity: 99%

## Nα-Methyl-Nω-({8-N-[Nα-(6-N-{2-[4,7,10-tris(carboxymethyl)-1,4,7,10-tetraazacyclododecan-1-yl]acetyl}-aminohexanoyl)-4-(4-fluorophenyl)-phenylalanyl]amino-3,6-dioxaoctyl}aminocarbonyl)Arg-Arg-Pro-Tyr-α-tert-butyl-Gly-Leu
[1]; conjugation step
  final HPLC purity: 99%
  conjugation yield: 69%

## Nα-Methyl-Nω-[(4-aminobutyl)aminocarbonyl]Arg-Arg-Pro-β,β-dimethyl-D-Tyr-α-tert-butyl-Gly-Leu tetrakis(hydrotrifluoroacetate)
[2]
  isolated yield: 18%
[1]; whole synthesis
  final HPLC purity: 93%

## PEPTIDE1{[MeArg(cbC4DOTA)].R.P.[bbdiMeTyr].[Tle].L}$$$$V2.0
[1]; conjugation step
  final HPLC purity: 98%
  conjugation yield: 79%

## Nα-Methyl-Nω-[(4-aminobutyl)aminocarbonyl]Arg-Arg-Pro-β,β-dimethyl-Tyr-Ile-Leu tetrakis(hydrotrifluoroacetate)
[2]
  isolated yield: 25%
[1]; whole synthesis
  final HPLC purity: 97%

## Nα-Methyl-Nω-({8-N-[Nα-(6-aminohexanoyl)-4-(4-fluorophenyl)-phenylalanyl]amino-3,6-dioxaoctyl}aminocarbonyl)Arg-Arg-Pro-Tyr-α-tert-butyl-Gly-Leu tetrakis(hydrotrifluoroacetate)
[1]; late stage modification step
  final HPLC purity: > 99%
  step yield: 66%

## Nα-Methyl-Nω-{[8-N-(Nα-{2-[gallium(III)-4,7,10-tris(carboxymethyl)-1,4,7,10-tetraazacyclododecan-1-yl]acetyl}-4-{4-fluorophenyl}-phenylalanyl)amino-3,6-dioxaoctyl]aminocarbonyl}Arg-Arg-Pro-Tyr-α-tert-butyl-Gly-Leu
[1]; late stage modification step
  final HPLC purity: > 99%
  step yield: 95%

## PEPTIDE1{R.[NMeArg(carb-C4N)].P.Y.[Tle].L}$$$$V2.0
[2]; scale 0.047 mmol
  isolated mass: 39.0 mg
  isolated yield: 59%
[1]; whole synthesis
  final HPLC purity: 99%

## PEPTIDE1{[NMeArg].R.P.[D-bbMe2Tyr].I.L}$$$$V2.0
[2]; scale 0.0316 mmol
  isolated mass: 11.8 mg
  isolated yield: 31%
[1]; whole synthesis
  final HPLC purity: 99%

## PEPTIDE1{[NMeArg].R.P.Y.[cPrGly].L}$$$$V2.0
[2]; scale 0.0316 mmol
  isolated mass: 25.3 mg
  isolated yield: 69%
[1]; whole synthesis
  final HPLC purity: 97%

## PEPTIDE1{[NMeArg].[Arg(carb-C4N)].P.Y.[Tle].L}$$$$V2.0
[2]; scale 0.086 mmol
  isolated mass: 68.7 mg
  isolated yield: 57%
[1]; whole synthesis
  final HPLC purity: > 99%

## PEPTIDE1{[NMeArg].R.P.Y.[cBuGly].L}$$$$V2.0
[2]; scale 0.0316 mmol
  isolated mass: 27.6 mg
  isolated yield: 74%
[1]; whole synthesis
  final HPLC purity: 99%

## PEPTIDE1{[NMeArg].[Arg(carb-C4N)].P.Y.I.L}$$$$V2.0
[2]; scale 0.095 mmol
  isolated mass: 58.8 mg
  isolated yield: 44%
[1]; whole synthesis
  final HPLC purity: > 99%

## PEPTIDE1{[MeArg(cbDOO-DOTA)].R.P.Y.[Tle].L}$$$$V2.0 [18]
[1]; conjugation step
  final HPLC purity: 99%
  conjugation yield: 93%

## Nα-Methyl-Nω-{[4-N-(Nα-{2-[4,7,10-tris(carboxymethyl)-1,4,7,10-tetraazacyclododecan-1-yl]acetyl}-4-{4-fluorophenyl}phenylalanyl)aminobutyl]aminocarbonyl}Arg-Arg-Pro-Tyr-α-tert-butyl-Gly-Leu tetrakis(hydrotrifluoroacetate)
[1]; conjugation step
  final HPLC purity: > 99%
  conjugation yield: 78%

## Nα-Methyl-Nω-({8-N-[Nα-(6-N-{2-[gallium(III)-4,7,10-tris(carboxymethyl)-1,4,7,10-tetraazacyclododecan-1-yl]acetyl}-aminohexanoyl)-4-(4-fluorophenyl)-phenylalanyl]amino-3,6-dioxaoctyl}aminocarbonyl)Arg-Arg-Pro-Tyr-α-tert-butyl-Gly-Leu
[1]; late stage modification step
  final HPLC purity: 99%

## PEPTIDE1{[NMeArg].R.P.[bbMe2Tyr].I.L}$$$$V2.0
[2]; scale 0.0316 mmol
  isolated mass: 16.7 mg
  isolated yield: 44%
[1]; whole synthesis
  final HPLC purity: 97%

## Nα-Arginyl-Nα-methyl-Nω-{[4-(N-{2-[gallium(III)-4,7,10-tris(carboxymethyl)-1,4,7,10-tetraazacyclododecan-1-yl]acetyl})aminobutyl]aminocarbonyl}Arg-Pro-Tyr-α-tert-butyl-Gly-Leu tris(hydrotrifluoroacetate) [22]
[1]; late stage modification step
  final HPLC purity: 98%
  step yield: 99%

## Nα-Methyl-Nω-{[4-N-(Nα-{2-[gallium(III)-4,7,10-tris(carboxymethyl)-1,4,7,10-tetraazacyclododecan-1-yl]acetyl}-4-(4-fluorophenyl)phenylalanyl)aminobutyl]aminocarbonyl}Arg-Arg-Pro-Tyr-α-tert-butyl-Gly-Leu tris(hydrotrifluoroacetate)
[1]; late stage modification step
  final HPLC purity: > 99%

## Nα-Methyl-Nω-{[4-(N-{2-[4,7,10-tris(carboxymethyl)-1,4,7,10-tetraazacyclododecan-1-yl]acetyl})aminobutyl]aminocarbonyl}Arg-Arg-Pro-Tyr-α-tert-butyl-Gly-Leu tetrakis(hydrotrifluoroacetate) [16]
[1]; conjugation step
  final HPLC purity: 99%
  conjugation yield: 75%

## Nα-Methyl-Nω-[(4-aminobutyl)aminocarbonyl]Arg-Arg-Pro-β,β-dimethyl-Tyr-α-tert-butyl-Gly-Leu tetrakis(hydrotrifluoroacetate)
[2]
  isolated yield: 19%
[1]; whole synthesis
  final HPLC purity: 98%

## Nα-Methyl-Nω-{[8-(N-{2-[gallium(III)-4,7,10-tris(carboxymethyl)-1,4,7,10-tetraazacyclododecan-1-yl]acetyl})amino-3,6-dioxaoctyl]aminocarbonyl}Arg-Arg-Pro-Tyr-α-tert-butyl-Gly-Leu tris(hydrotrifluoroacetate) [23]
[1]; late stage modification step
  final HPLC purity: > 99%
  step yield: 92%

## PEPTIDE1{[NMeArg].R.P.Y.[cPeGly].L}$$$$V2.0
[2]; scale 0.0316 mmol
  isolated mass: 26.8 mg
  isolated yield: 71%
[1]; whole synthesis
  final HPLC purity: 99%

## PEPTIDE1{[NMeArg(carb-O2C6N)].R.P.Y.[Tle].L}$$$$V2.0
[2]; scale 0.079 mmol
  isolated mass: 63.1 mg
  isolated yield: 55%
[1]; whole synthesis
  final HPLC purity: 89%

## Nα-Methyl-Nω-[(4-aminobutyl)aminocarbonyl]Arg-Arg-Pro-β,β-dimethyl-D-Tyr-Ile-Leu tetrakis(hydrotrifluoroacetate)
[2]
  isolated yield: 17%
[1]; whole synthesis
  final HPLC purity: 95%

## PEPTIDE1{[MeArg].[Arg(cbC4DOTA)].P.Y.[Tle].L}$$$$V2.0 [14]
[1]; conjugation step
  final HPLC purity: > 99%
  conjugation yield: 72%

## Nα-Methyl-Nω-{[4-N-(4-aminomethyl-3-fluorobenzoyl)aminobutyl]aminocarbonyl}Arg-Arg-Pro-Tyr-α-tert-butyl-Gly-Leu tetrakis(hydrotrifluoroacetate)
[1]; late stage modification step
  final HPLC purity: > 99%
  step yield: 24%

## Nα-Methyl-Nω-{[4-(N-{2-[gallium(III)-4,7,10-tris(carboxymethyl)-1,4,7,10-tetraazacyclododecan-1-yl]acetyl})aminobutyl]aminocarbonyl}Arg-Arg-Pro-Tyr-α-tert-butyl-Gly-Leu tris(hydrotrifluoroacetate) [21]
[1]; late stage modification step
  final HPLC purity: > 99%
  step yield: 92%

## Nα-Methyl-Nω-{[8-N-(4-aminomethyl-3-fluorobenzoyl)amino-3,6-dioxaoctyl]aminocarbonyl}Arg-Arg-Pro-Tyr-α-tert-butyl-Gly-Leu tetrakis(hydrotrifluoroacetate)
[1]; late stage modification step
  final HPLC purity: 99%
  step yield: 32%
